{"source": "PubChem BioAssay AID602196, INSERM, 2012", "test": "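Genes whose knock-down alters cisplatin killing of lung cancer cells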", "cell system": "human A549 lung cancer cells", "reagent": "siRNA pair against human genes", "time to read-out": "48 h transfection before cisplatin; time from cisplatin to read-out not stated", "conditions": "cisplatin at a dose killing half of control-siRNA cells; exact dose and duration not given", "measured": "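Shift in cisplatin death relative to control siRNA, from -50 (all cells die) to +50 (no cells die); siRNAs harmful on their own scored 0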", "direction": "two-siRNA summed score (-2 to +2): higher = both siRNAs protect from cisplatin killing; -2 means both sensitise", "active means": "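siRNAs harmful alone (LDH or WST-1) get 0; others get +1 for less and -1 for more cisplatin killing; genes are active when the two siRNAs give the same sign, summing to ±2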", "meaning of the calls": "active = both siRNAs shift cisplatin killing the same way; inactive = no consistent shift, or siRNA harmful alone", "note": "The deposit covers about 23,000 reagents; shown is an unselected part. Over the whole deposit, 455 (2%) were called active. 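Active includes both protection and sensitisation; some change values fall well beyond the stated -50 to +50 range.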 Further read-outs or replicates are left out here. Not stated in the record: the amount of reagent."}
{"Gene": "SUCO", "two-siRNA summed score (-2 to +2)": 0, "activity call": "inactive"}
{"Gene": "FASTK", "two-siRNA summed score (-2 to +2)": 1, "activity call": "inactive"}
{"Gene": "LOC391444", "two-siRNA summed score (-2 to +2)": 0, "activity call": "inactive"}
{"Gene": "TMBIM4", "two-siRNA summed score (-2 to +2)": 0, "activity call": "inactive"}
{"Gene": "LOC391727", "two-siRNA summed score (-2 to +2)": 0, "activity call": "inactive"}
{"Gene": "KCNU1", "two-siRNA summed score (-2 to +2)": -1, "activity call": "inactive"}
{"Gene": "SHKBP1", "two-siRNA summed score (-2 to +2)": 0, "activity call": "inactive"}
{"Gene": "LCMT2", "two-siRNA summed score (-2 to +2)": 0, "activity call": "inactive"}
{"Gene": "POGZ", "two-siRNA summed score (-2 to +2)": 0, "activity call": "inactive"}
{"Gene": "ABL2", "two-siRNA summed score (-2 to +2)": -1, "activity call": "inactive"}
{"Gene": "KCNAB3", "two-siRNA summed score (-2 to +2)": 0, "activity call": "inactive"}
{"Gene": "TNFAIP3", "two-siRNA summed score (-2 to +2)": 0, "activity call": "inactive"}
{"Gene": "ECI2", "two-siRNA summed score (-2 to +2)": 1, "activity call": "inactive"}
{"Gene": "OR11G2", "two-siRNA summed score (-2 to +2)": 0, "activity call": "inactive"}
{"Gene": "M6PR", "two-siRNA summed score (-2 to +2)": 0, "activity call": "inactive"}
{"Gene": "SLC25A13", "two-siRNA summed score (-2 to +2)": 0, "activity call": "inactive"}
{"Gene": "HTRA2", "two-siRNA summed score (-2 to +2)": 0, "activity call": "inactive"}
{"Gene": "LOC441997", "two-siRNA summed score (-2 to +2)": 1, "activity call": "inactive"}
{"Gene": "TFAP2C", "two-siRNA summed score (-2 to +2)": 0, "activity call": "inactive"}
{"Gene": "HMOX1", "two-siRNA summed score (-2 to +2)": 0, "activity call": "inactive"}
{"Gene": "C14orf39", "two-siRNA summed score (-2 to +2)": 0, "activity call": "inactive"}
{"Gene": "NTN3", "two-siRNA summed score (-2 to +2)": 1, "activity call": "inactive"}
{"Gene": "LOC388751", "two-siRNA summed score (-2 to +2)": 1, "activity call": "inactive"}
{"Gene": "HNRNPA1P60", "two-siRNA summed score (-2 to +2)": 0, "activity call": "inactive"}
{"Gene": "TBX19", "two-siRNA summed score (-2 to +2)": 0, "activity call": "inactive"}
{"Gene": "LOC254974", "two-siRNA summed score (-2 to +2)": -1, "activity call": "inactive"}
{"Gene": "BAZ2B", "two-siRNA summed score (-2 to +2)": -1, "activity call": "inactive"}
{"Gene": "SLC17A2", "two-siRNA summed score (-2 to +2)": 1, "activity call": "inactive"}
{"Gene": "RPL17P5", "two-siRNA summed score (-2 to +2)": 0, "activity call": "inactive"}
{"Gene": "C1QC", "two-siRNA summed score (-2 to +2)": 0, "activity call": "inactive"}
{"Gene": "UQCR11", "two-siRNA summed score (-2 to +2)": 0, "activity call": "inactive"}

Laid out differently: 4 of the entries above.
| Gene | two-siRNA summed score (-2 to +2) | activity call |
| --- | --- | --- |
| KCNAB3 | 0 | inactive |
| TNFAIP3 | 0 | inactive |
| ECI2 | 1 | inactive |
| OR11G2 | 0 | inactive |
